Drawing on article PMC3121795, this text covers binding for one substance.

This test addresses IPNV VP1 lacking the C-terminal 55 residues (ΔC55) (infectious pancreatic necrosis virus (IPNV) strain Jasper) (UniProt P22173). The experiment in a line: crystal structure; ΔC55 VP1 crystals (apo, Mg-soaked, and apo in a large unit cell); 5.8-6.8 mg/mL protein, PEG3350, bis-Tris propane pH 7.5, sodium citrate, 20.5°C; both purified.

Results are given in words; binding and its absence hold for the method and conditions named. Some results given as binding are weak or reduced against the parent protein; the word gives no strength.

In the case of “IPNV VP1 lacking the C-terminal 55 residues (ΔC55) (from UniProt P22173 1-790) (domain or fragment)”, the binding result was “binds weakly”.
